Reference: PubChem BioAssay AID686938 (Drosophila RNAi Screening Center, 2013)

- Assay: 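Looking for CRAC channel components and the factors controlling them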 (primary screen)
- System: Drosophila S2R+ cells
- Knock-down reagent: long dsRNA against Drosophila genes, about 0.25 µg dsRNA per well, roughly 10,000 cells
- Timing: 5 days of knock-down before the calcium assay
- Treatment: thapsigargin (SERCA pump blocker) to empty calcium stores; entry signal taken 4 min after adding it
- Measurement: 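Per-well fluo-4 fluorescence in two replicates, unnormalised, measured in resting cells and 4 min after store depletion by the SERCA blocker thapsigargin; ratio of the two present in few wells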
- Direction: calcium entry signal: higher = stronger calcium signal after store depletion; resting calcium signal: higher = higher resting calcium signal
- Active means: 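Called when the plate z-score of the entry-to-rest ratio, mean of duplicates, falls below −3; wells with low overall dye signal (Fmax z below −2) or more than five off-targets excluded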
- Calls: active = strongly reduced calcium entry; inactive = no strong reduction
In all, the deposit lists about 23,000 reagents; shown is an unselected part of those with a known target gene and a result. Over the whole deposit, 75 (0.33%) are marked active. 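Raw plate signals without normalisation; calls rest on plate z-scores that were not deposited; ratio present for only 364 wells.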 Unmarked entries are inactive. A plus sign joins genes that one reagent is predicted to hit. Reagent sequences are not shown. Not stated in the record: the dose of the treatment.

gene | amplicon | calcium entry signal, replicate 1 (fluorescence units) | calcium entry signal, replicate 2 (fluorescence units) | resting calcium signal, replicate 1 (fluorescence units) | resting calcium signal, replicate 2 (fluorescence units)
CG9776 | DRSC12127 | 3.38e7 | 4.26e7 | 1.64e7 | 3.09e7
CG32599 | DRSC19433 | 3.34e7 | 3.34e7 | 1.53e7 | 1.61e7
Atox1 (Antioxidant 1 copper chaperone) | DRSC22416 | 3.41e7 | 3.39e7 | 1.68e7 | 1.47e7
reb (rebuf) | DRSC06308 | 3.78e7 | 3.38e7 | 2.00e7 | 1.51e7
CheB93a (Chemosensory protein B 93a) | DRSC15044 | 4.20e7 | 3.60e7 | 5.28e7 | 1.66e7
Ilp3 (Insulin-like peptide 3) | DRSC10168 | 3.52e7 | 5.00e7 | 1.80e7 | 2.15e7
Ask1 (Apoptotic signal-regulating kinase 1) | DRSC16789 | 3.88e7 | 3.51e7 | 5.43e7 | 1.59e7
Ask1 (Apoptotic signal-regulating kinase 1) | DRSC21697 | 3.78e7 | 3.27e7 | 2.08e7 | 1.63e7
CG16779 | DRSC15153 | 4.05e7 | 3.40e7 | 2.43e7 | 1.92e7
CG3502 | DRSC04381 | 4.39e7 | – | 2.23e7 | –
EndoB (Endophilin B) | DRSC07345 | 4.28e7 | 3.44e7 | 1.71e7 | 1.82e7
CG13766 | DRSC02271 | 2.56e7 | 3.10e7 | 1.32e7 | 1.38e7
Cpr65Ay (Cuticular protein 65Ay) | DRSC08796 | 4.44e7 | 3.84e7 | 2.38e7 | 1.78e7
CG15199 | DRSC19646 | 3.76e7 | 4.96e7 | 1.91e7 | 2.41e7
Ent3 (Equilibrative nucleoside transporter 3) | DRSC09822 | 5.88e7 | 4.72e7 | 3.93e7 | 2.01e7
Syt1 (Synaptotagmin 1) | DRSC00156 | 3.68e7 | 3.81e7 | 1.90e7 | 1.89e7
Syt1 (Synaptotagmin 1) | DRSC00157 | 3.93e7 | 3.07e7 | 2.04e7 | 1.60e7
Syt1 (Synaptotagmin 1) | DRSC00158 | 4.08e7 | 4.31e7 | 2.11e7 | 2.01e7
Syt1 (Synaptotagmin 1) | DRSC00840 | 3.76e7 | – | 1.94e7 | –
Syt1 (Synaptotagmin 1) | DRSC22077 | 4.13e7 | 8.16e7 | 2.02e7 | 3.31e7
CG32833 | DRSC04596 | 3.99e7 | – | 1.93e7 | –
CG30279 (retired record) | DRSC22417 | 3.17e7 | 3.71e7 | 1.64e7 | 1.49e7
axo (axotactin) | DRSC08116 | 3.89e7 | 3.33e7 | 2.01e7 | 1.64e7
axo (axotactin) | DRSC08324 | 2.56e7 | 3.90e7 | 1.31e7 | 1.90e7
axo (axotactin) | DRSC08326 | 2.84e7 | 4.41e7 | 1.45e7 | 2.01e7
axo (axotactin) | DRSC21337 | 3.01e7 | 3.38e7 | 1.48e7 | 1.48e7
axo (axotactin) | DRSC23087 | 3.38e7 | 3.12e7 | 1.37e7 | 1.36e7
DIP-gamma (Dpr-interacting protein gamma) | DRSC14873 | 3.53e7 | 3.00e7 | 1.49e7 | 1.35e7
CG3483 | DRSC04371 | 3.64e7 | – | 2.01e7 | –
CG10254 | DRSC14153 | 4.10e7 | 3.34e7 | 1.82e7 | 1.53e7
RhoGAP93B (Rho GTPase activating protein at 93B) | DRSC15488 | 4.69e7 | 4.79e7 | 5.32e7 | 2.03e7
Acsx4 (Acyl-CoA synthetase X4) | DRSC14311 | 4.20e7 | 3.89e7 | 5.50e7 | 1.96e7
Pvf1 (PDGF- and VEGF-related factor 1) | DRSC20024 | 3.92e7 | 4.15e7 | 1.81e7 | 1.80e7
Gadd45 (Growth arrest and DNA damage-inducible 45) | DRSC06033 | 4.52e7 | 3.60e7 | 1.94e7 | 1.75e7
l(3)04053 (lethal (3) 04053) | DRSC11640 | 2.92e7 | 4.58e7 | 1.43e7 | 2.51e7
Akt (Akt kinase) | DRSC14108 | 2.89e7 | 2.36e7 | 1.46e7 | 1.10e7
Hcf (Host cell factor) | DRSC17143 | 2.79e7 | 3.70e7 | 1.59e7 | 1.77e7
CG7381 | DRSC16238 | 3.51e7 | 4.85e7 | 1.60e7 | 1.98e7
CG31922 | DRSC21703 | 3.33e7 | 3.11e7 | 1.99e7 | 1.46e7
Taf10b + Taf10 | DRSC00793 | 3.55e7 | 4.07e7 | 1.62e7 | 1.64e7
CG13138 | DRSC02235 | 2.74e7 | 3.74e7 | 1.40e7 | 1.63e7
del (deadlock) | DRSC03170 | 3.49e7 | – | 1.81e7 | –
CG11127 | DRSC06043 | 4.70e7 | – | 2.33e7 | –
CG3841 | DRSC02730 | 3.21e7 | 6.17e7 | 1.68e7 | 2.61e7
CG31109 | DRSC14648 | 4.64e7 | 6.05e7 | 2.19e7 | 2.29e7
CG17715 | DRSC11950 | 2.49e7 | 4.01e7 | 1.22e7 | 1.65e7
Aprt (Adenine phosphoribosyltransferase) | DRSC08139 | 2.49e7 | 3.17e7 | 1.40e7 | 1.53e7
Gr59d (Gustatory receptor 59d) | DRSC22553 | 4.23e7 | 3.17e7 | 1.95e7 | 1.29e7
CG14718 | DRSC14941 | 2.76e7 | 3.24e7 | 1.18e7 | 1.46e7
GlcAT-S (Glucuronyltransferase S) | DRSC02731 | 4.11e7 | – | 1.93e7 | –
CG31688 | DRSC02117 | 5.52e7 | 5.40e7 | 2.65e7 | 2.32e7
CG31688 | DRSC02682 | 4.14e7 | 5.50e7 | 2.19e7 | 2.35e7
smash (smallish) | DRSC12139 | 2.95e7 | 3.48e7 | 1.40e7 | 2.15e7
smash (smallish) | DRSC12141 | 3.26e7 | 3.54e7 | 1.42e7 | 2.10e7
smash (smallish) | DRSC12239 | 3.29e7 | 4.91e7 | 1.56e7 | 2.08e7
smash (smallish) | DRSC12289 | 3.12e7 | 4.90e7 | 1.59e7 | 2.20e7
CG3176 + CR18166 + CG32817 | DRSC17271 | 5.21e7 | 4.62e7 | 2.68e7 | 2.04e7
CG3176 + CR18166 + CG32817 | DRSC17282 | 4.40e7 | 4.09e7 | 2.26e7 | 1.86e7
CG3176 + CR18166 + CG32817 | DRSC18288 | 3.89e7 | 4.15e7 | 1.61e7 | 1.88e7
